Article PMC5414047
These are yes or no findings as the source states them, for the method shown. In cells and extracts the contact can be indirect. Here binding means that the protein was enriched with, or labelled near, the bait; the list need not be complete.

Protein sequences, listed by entry. Tags and fused reporters are not part of them. Residues count along the entry.
UniProt Q9UNN5: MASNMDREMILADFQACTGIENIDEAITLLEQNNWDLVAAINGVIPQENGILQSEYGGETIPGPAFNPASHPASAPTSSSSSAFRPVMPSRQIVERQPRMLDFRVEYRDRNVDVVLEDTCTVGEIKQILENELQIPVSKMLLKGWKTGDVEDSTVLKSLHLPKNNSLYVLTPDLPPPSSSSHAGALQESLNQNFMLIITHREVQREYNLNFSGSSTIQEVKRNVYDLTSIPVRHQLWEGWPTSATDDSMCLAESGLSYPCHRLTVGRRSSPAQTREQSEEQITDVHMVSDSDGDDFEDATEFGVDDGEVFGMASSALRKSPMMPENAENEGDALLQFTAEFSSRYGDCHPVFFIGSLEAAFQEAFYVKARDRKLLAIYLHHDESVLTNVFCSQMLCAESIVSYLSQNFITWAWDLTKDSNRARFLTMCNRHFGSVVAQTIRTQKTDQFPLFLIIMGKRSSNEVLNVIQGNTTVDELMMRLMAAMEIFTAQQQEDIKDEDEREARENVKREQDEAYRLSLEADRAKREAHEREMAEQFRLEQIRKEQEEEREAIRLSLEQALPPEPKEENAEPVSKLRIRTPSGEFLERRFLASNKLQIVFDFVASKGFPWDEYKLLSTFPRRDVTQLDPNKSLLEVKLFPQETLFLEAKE
UniProt P37173, residues 23-567: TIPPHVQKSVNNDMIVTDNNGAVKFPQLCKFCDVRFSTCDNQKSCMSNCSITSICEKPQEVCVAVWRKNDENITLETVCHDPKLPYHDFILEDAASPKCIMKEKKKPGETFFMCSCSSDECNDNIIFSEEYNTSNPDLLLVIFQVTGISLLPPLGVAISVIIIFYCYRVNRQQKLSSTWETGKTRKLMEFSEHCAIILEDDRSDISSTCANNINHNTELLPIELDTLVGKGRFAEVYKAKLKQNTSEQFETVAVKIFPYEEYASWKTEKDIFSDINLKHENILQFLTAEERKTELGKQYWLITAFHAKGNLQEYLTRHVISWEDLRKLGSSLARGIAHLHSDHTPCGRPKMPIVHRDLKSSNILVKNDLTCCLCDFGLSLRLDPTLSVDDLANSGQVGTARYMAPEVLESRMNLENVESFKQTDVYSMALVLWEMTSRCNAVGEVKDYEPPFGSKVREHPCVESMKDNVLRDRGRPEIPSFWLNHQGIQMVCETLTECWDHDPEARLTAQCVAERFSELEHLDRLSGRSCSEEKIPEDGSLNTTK
UniProt O95292: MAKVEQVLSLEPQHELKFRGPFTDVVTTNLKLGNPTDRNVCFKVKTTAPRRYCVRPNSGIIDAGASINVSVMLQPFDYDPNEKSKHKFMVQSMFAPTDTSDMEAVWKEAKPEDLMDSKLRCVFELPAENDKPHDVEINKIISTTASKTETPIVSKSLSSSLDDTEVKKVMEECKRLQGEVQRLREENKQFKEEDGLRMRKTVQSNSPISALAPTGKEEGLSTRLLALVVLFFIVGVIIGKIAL

Columns and labels:
Flag-FAF1 wt = Flag-FAF1 wt (UniProt Q9UNN5); assay: affinity purification with mass spectrometry; anti-Flag-FAF1 immunoprecipitants; cell line not stated
[1] = target: FLAG-tagged TGF-β type II serine/threonine kinase receptor (TβRII-Flag) (UniProt P37173); assay: affinity purification with mass spectrometry; TβRII-Flag immunoprecipitants from cells without (sample A) and with (sample B) NH4Cl (25 mM); cell line not stated

binding (Flag-FAF1 wt)	binding [1]	Substance
binds	–	VAPB (from UniProt O95292 1-243)
–	binds	FAS-associated factor 1 (FAF1), endogenous (from UniProt Q9UNN5 1-650)
